{"sequences": {"note": "Protein sequences, listed by entry. Tags and fused reporters are not part of them. Lines headed by an entry give the natural chain unless they say otherwise; changes in a name come on top.", "UniProt P13501": "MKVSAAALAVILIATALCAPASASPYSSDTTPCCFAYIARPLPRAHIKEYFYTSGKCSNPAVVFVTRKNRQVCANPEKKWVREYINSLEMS"}, "source": "patent US7402303", "about": "(LABORATOIRES SERONO, dated 2008)", "note": "No constants are given. Whether binding was seen depends on the method and setting. Some entries that bind do so weakly or less than the wild type.", "data": [{"target": "T1, recombinant CCR1 (UniProt P32246 1-355, limits assumed)", "T1 construct": "whole, on cells; The assay used membranes of CHO transfectants, not whole cells", "T1 sequence (looked up)": "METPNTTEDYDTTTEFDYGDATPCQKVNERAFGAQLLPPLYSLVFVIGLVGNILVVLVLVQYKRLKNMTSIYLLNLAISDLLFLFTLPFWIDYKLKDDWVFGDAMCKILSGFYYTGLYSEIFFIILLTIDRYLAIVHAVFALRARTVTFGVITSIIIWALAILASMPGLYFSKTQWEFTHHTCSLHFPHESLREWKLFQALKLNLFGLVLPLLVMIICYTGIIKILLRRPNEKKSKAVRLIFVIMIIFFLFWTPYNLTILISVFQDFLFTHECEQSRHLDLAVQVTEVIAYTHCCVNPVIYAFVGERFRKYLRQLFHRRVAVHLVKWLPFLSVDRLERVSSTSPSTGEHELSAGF", "assay": "SPA equilibrium competition with [125I]-MIP-1α on CHO-CCR1 membranes", "description": "Competitors were prepared by serial dilutions of the unlabelled chemokines in binding buffer to cover the range 10^-6-10^-12 M. The binding buffer used was 50 mM HEPES, pH 7.2 containing 1 mM CaCl_2, 5 mM MgCl_2, 0.15 M NaCl and 0.5% BSA. Wheatgerm SPA beads (Amersham) were solubilised in PBS to 50 mg/ml, and diluted in the binding buffer to a 10 mg/ml, and the final concentration in the assay was 0.25 mg/well. Membranes prepared from CHO cells expressing CCR1 or CCR5 were stored at −80° C. and diluted in the binding buffer to a 80 μg/ml. Equal volumes of membrane and beads stocks were mixed before performing the assay to reduce background. […] The plates were incubated at room temperature with agitation for 4 hours. Radioactivity was measured and data analysed as described for the heparin-binding assay.\nMIP-1α for binding to recombinant CCR1 and CCR5 in membranes prepared from CHO stable transfectants. There was no significant difference in any of the single mutations on both receptors (results not shown).", "values": [{"substance": "R59A-RANTES mutant (from UniProt P13501 24-91) (ligand)", "binding": "binds"}, {"substance": "R47A-RANTES mutant (from UniProt P13501 24-91) (ligand)", "binding": "binds"}, {"substance": "R44A-RANTES mutant (from UniProt P13501 24-91) (ligand)", "binding": "binds"}, {"substance": "K45A-RANTES mutant (from UniProt P13501 24-91) (ligand)", "binding": "binds"}, {"substance": "K56A-RANTES mutant (from UniProt P13501 24-91) (ligand)", "binding": "binds"}, {"substance": "K55A-RANTES mutant (from UniProt P13501 24-91) (ligand)", "binding": "binds"}]}, {"target": "T1, recombinant CCR1", "assay": "SPA equilibrium competition with [125I]-MIP-1α on CHO-CCR1 membranes; WT RANTES is the reference", "values": [{"substance": "Wild-type (WT) RANTES (from UniProt P13501 24-91) (ligand)", "binding": "binds"}]}]}
